No constants are given. Whether binding was seen depends on the method and setting. In cells and extracts the contact can be indirect. For some assays here: Binding can be weak; no strength is given.
Key:
[1] = target: GST-RB large pocket (amino acids 379-928) triple mutant RB^GSL (human) (UniProt P06400); assay: pull-down; purified GST-RB large pocket proteins on glutathione beads with extracts of transfected C33A cells (HA-E2F1-3 with DP1, or myc-CDH1); extract in GSE buffer (420 mM NaCl) diluted twofold in low salt GSE (20 mM Tris pH 7.5, 0.1% NP-40); western blot; only the target purified
[2] = target: GST-RB large pocket (amino acids 379-928) with the RB^G mutations (human) (UniProt P06400); assay: pull-down; competition: purified GST-RBLP or GST-RBLP^G with constant myc-CDH1 C33A extract and increasing amounts of HA-E2F3/DP1 C33A extract; glutathione beads; western blot for myc and HA; only the target purified

Sequences of proteins named here, by UniProt entry; tags and fusion partners are left off. A change or cut given only in a name is not applied to a line headed by its entry.
UniProt P06400: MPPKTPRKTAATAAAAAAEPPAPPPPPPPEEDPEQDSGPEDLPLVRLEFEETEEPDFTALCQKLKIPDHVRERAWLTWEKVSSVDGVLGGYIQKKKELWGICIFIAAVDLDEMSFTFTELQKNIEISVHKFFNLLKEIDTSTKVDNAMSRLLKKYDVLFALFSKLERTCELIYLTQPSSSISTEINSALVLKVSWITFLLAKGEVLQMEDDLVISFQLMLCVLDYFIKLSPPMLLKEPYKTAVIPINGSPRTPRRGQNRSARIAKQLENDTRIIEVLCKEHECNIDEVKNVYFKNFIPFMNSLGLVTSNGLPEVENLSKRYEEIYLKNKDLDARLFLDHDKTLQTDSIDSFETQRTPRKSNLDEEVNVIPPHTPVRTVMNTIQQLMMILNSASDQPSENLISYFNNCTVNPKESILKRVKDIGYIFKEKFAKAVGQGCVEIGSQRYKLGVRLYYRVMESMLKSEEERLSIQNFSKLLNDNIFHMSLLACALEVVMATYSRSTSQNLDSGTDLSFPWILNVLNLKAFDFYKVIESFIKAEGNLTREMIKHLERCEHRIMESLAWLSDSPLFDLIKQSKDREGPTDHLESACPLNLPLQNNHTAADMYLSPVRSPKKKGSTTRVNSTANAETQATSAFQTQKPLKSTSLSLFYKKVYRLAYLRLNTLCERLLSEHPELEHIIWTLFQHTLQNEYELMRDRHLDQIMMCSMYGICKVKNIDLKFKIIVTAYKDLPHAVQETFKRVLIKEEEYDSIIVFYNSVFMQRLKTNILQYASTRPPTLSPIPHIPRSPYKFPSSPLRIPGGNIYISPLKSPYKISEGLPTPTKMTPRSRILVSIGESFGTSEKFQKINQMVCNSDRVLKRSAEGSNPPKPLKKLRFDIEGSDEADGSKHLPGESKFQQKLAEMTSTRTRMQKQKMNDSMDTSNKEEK
UniProt Q9UM11: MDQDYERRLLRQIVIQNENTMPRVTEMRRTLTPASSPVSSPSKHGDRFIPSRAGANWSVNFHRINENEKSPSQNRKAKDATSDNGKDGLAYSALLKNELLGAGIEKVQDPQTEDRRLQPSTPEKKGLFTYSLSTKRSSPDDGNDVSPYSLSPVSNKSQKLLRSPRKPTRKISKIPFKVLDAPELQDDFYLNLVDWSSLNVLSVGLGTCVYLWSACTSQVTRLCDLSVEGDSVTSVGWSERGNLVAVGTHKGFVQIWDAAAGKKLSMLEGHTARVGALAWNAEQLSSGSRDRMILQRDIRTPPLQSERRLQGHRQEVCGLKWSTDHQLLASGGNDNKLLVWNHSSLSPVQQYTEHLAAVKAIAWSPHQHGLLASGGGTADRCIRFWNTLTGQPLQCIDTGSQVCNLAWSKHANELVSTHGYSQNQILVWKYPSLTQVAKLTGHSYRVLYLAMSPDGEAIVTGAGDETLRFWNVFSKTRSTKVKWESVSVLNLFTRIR

binding [1]: no binding
binding [2]: binds
Substance: myc tagged CDH1 (anaphase promoting complex targeting subunit) (from UniProt Q9UM11 1-496)
